# Source: the supplement of paper PMC10849652
# The chains behind the UniProt entries cited, without tags or fusion partners. Where a name states a change or a piece, a line headed by the entry shows the natural chain unless it says otherwise.
# UniProt Q9UBN7: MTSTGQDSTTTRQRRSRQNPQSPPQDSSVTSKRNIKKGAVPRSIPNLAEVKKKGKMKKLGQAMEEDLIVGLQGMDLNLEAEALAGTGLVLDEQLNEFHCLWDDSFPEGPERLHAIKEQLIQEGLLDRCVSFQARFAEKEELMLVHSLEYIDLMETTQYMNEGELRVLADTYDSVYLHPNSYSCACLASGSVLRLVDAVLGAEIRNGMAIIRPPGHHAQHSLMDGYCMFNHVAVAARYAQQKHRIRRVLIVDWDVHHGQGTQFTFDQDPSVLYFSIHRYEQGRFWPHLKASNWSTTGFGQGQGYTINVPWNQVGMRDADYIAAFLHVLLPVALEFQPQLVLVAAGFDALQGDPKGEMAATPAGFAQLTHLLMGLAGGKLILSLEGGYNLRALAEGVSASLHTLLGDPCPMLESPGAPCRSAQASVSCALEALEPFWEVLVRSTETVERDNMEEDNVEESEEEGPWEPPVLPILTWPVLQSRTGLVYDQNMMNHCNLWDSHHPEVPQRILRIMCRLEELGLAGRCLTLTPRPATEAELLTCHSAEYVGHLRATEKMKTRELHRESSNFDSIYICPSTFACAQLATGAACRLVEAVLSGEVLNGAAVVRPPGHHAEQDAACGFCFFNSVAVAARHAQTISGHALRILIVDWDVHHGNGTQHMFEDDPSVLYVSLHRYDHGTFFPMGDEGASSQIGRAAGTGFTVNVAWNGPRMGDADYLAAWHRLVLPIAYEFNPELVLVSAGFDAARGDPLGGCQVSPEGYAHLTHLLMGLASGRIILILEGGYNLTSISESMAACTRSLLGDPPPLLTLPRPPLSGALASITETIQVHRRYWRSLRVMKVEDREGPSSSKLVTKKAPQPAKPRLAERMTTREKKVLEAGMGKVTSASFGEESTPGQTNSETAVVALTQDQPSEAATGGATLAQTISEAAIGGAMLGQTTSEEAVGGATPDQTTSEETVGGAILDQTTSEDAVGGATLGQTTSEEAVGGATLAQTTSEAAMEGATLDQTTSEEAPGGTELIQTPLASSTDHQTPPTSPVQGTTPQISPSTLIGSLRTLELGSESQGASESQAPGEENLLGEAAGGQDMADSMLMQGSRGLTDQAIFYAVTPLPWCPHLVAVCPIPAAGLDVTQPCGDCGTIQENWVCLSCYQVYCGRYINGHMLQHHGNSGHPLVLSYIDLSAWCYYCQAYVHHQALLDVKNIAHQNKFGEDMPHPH
# UniProt Q13547, whole entry, looked up: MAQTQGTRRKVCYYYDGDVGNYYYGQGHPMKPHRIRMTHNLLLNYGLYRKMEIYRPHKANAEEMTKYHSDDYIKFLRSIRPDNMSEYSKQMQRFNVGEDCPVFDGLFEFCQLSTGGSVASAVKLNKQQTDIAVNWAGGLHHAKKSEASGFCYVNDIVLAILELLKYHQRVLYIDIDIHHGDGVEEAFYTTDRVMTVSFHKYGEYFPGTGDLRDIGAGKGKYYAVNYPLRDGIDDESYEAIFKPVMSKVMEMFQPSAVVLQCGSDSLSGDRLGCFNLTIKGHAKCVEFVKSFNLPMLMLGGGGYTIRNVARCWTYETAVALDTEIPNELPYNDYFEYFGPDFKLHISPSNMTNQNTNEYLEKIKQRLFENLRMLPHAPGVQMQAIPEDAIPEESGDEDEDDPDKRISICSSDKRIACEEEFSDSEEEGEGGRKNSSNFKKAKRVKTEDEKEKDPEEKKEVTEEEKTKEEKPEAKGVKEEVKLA
# UniProt Q9UKN8: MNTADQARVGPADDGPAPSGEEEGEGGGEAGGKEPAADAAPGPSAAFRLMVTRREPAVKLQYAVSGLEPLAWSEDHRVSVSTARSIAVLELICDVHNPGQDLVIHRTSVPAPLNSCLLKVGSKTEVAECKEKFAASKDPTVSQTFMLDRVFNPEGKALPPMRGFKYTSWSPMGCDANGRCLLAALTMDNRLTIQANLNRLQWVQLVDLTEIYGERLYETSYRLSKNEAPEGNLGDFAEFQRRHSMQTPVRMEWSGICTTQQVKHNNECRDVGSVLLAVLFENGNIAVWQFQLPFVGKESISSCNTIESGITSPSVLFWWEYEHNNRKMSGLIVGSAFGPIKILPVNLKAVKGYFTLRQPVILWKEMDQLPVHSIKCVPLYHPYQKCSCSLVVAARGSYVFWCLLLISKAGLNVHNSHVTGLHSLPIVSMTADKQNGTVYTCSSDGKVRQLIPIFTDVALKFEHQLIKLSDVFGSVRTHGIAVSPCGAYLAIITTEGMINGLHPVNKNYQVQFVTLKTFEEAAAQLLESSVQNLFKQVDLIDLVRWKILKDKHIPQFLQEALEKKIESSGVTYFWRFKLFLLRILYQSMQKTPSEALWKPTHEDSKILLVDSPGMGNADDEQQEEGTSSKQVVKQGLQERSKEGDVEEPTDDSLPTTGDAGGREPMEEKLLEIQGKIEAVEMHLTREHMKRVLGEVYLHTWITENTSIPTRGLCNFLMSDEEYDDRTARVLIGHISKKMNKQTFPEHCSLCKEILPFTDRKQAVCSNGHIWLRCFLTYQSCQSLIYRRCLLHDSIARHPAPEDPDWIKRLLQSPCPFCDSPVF
# UniProt P29084: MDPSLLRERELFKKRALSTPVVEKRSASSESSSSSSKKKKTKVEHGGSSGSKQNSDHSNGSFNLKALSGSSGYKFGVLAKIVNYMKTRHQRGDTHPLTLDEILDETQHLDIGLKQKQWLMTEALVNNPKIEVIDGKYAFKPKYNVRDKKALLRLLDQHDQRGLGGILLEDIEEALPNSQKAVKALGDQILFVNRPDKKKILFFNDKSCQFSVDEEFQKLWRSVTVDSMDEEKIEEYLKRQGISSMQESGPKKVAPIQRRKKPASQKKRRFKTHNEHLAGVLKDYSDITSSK
# UniProt P52657, whole entry, looked up: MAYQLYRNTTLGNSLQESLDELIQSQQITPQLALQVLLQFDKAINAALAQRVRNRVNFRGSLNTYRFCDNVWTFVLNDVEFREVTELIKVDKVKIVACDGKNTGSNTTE
# UniProt Q8N442: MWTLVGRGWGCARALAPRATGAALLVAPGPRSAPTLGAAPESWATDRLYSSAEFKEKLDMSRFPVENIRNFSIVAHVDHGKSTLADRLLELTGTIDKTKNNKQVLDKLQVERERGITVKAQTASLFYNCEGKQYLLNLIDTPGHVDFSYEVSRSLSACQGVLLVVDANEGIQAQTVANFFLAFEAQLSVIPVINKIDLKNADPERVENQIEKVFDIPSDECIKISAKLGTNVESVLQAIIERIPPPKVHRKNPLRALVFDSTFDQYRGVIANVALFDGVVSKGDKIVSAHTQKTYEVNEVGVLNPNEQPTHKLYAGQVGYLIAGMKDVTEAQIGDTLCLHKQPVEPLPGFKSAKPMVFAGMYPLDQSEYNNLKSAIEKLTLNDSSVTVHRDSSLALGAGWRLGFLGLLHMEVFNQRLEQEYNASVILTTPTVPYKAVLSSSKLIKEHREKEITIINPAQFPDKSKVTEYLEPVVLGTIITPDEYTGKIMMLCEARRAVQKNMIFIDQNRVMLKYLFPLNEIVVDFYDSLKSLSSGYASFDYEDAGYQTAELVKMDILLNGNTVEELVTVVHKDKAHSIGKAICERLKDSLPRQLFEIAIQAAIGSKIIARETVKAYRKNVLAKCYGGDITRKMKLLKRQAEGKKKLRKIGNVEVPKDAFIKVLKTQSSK
# UniProt Q8NEC7: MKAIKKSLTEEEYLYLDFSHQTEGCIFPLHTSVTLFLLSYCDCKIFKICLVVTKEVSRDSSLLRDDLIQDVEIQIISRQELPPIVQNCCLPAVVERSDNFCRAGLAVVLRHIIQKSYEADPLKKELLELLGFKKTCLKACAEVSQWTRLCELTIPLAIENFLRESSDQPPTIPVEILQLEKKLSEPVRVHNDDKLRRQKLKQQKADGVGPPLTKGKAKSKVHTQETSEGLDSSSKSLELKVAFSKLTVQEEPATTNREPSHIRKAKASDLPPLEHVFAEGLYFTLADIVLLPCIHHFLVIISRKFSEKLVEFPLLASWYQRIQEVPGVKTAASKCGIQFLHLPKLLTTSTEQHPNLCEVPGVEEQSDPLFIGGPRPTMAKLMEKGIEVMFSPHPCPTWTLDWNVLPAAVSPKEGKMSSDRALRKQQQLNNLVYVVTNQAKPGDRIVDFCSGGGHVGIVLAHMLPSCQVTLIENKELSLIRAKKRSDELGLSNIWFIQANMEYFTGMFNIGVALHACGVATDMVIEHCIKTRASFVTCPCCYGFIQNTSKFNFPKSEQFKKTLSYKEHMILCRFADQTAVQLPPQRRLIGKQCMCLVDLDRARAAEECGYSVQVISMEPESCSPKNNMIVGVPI
# UniProt O43824: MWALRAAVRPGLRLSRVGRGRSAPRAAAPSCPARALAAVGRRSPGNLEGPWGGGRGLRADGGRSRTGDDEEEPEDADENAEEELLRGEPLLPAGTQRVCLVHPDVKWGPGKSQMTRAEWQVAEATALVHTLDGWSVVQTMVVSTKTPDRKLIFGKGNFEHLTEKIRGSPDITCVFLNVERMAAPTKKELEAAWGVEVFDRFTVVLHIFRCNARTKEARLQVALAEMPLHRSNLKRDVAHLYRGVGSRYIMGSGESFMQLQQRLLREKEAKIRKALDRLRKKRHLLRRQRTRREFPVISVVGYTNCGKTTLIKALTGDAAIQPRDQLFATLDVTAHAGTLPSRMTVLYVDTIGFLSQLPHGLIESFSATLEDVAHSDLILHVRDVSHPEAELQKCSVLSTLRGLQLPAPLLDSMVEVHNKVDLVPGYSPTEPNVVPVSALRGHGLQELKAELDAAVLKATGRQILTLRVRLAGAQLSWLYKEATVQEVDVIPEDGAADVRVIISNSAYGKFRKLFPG
# UniProt P13807: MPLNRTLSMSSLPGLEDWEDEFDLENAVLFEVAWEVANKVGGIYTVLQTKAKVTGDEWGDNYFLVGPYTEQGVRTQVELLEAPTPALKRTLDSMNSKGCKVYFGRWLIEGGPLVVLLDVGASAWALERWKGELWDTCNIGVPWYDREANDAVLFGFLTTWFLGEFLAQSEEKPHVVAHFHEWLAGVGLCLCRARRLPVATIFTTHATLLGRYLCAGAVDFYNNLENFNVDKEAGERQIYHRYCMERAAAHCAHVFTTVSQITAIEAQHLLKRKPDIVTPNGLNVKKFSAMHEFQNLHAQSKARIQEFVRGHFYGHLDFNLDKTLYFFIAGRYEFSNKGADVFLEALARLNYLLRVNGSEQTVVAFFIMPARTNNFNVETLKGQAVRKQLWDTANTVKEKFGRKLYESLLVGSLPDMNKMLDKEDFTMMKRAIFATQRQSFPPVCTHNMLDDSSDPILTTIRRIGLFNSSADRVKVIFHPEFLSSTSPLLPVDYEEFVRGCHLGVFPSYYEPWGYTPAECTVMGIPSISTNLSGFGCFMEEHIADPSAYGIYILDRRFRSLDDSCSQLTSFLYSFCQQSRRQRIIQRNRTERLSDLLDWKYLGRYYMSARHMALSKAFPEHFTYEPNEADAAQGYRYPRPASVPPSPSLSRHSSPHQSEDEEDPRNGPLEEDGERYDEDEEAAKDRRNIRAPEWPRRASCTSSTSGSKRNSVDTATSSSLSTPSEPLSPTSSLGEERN
# UniProt Q9UQL6: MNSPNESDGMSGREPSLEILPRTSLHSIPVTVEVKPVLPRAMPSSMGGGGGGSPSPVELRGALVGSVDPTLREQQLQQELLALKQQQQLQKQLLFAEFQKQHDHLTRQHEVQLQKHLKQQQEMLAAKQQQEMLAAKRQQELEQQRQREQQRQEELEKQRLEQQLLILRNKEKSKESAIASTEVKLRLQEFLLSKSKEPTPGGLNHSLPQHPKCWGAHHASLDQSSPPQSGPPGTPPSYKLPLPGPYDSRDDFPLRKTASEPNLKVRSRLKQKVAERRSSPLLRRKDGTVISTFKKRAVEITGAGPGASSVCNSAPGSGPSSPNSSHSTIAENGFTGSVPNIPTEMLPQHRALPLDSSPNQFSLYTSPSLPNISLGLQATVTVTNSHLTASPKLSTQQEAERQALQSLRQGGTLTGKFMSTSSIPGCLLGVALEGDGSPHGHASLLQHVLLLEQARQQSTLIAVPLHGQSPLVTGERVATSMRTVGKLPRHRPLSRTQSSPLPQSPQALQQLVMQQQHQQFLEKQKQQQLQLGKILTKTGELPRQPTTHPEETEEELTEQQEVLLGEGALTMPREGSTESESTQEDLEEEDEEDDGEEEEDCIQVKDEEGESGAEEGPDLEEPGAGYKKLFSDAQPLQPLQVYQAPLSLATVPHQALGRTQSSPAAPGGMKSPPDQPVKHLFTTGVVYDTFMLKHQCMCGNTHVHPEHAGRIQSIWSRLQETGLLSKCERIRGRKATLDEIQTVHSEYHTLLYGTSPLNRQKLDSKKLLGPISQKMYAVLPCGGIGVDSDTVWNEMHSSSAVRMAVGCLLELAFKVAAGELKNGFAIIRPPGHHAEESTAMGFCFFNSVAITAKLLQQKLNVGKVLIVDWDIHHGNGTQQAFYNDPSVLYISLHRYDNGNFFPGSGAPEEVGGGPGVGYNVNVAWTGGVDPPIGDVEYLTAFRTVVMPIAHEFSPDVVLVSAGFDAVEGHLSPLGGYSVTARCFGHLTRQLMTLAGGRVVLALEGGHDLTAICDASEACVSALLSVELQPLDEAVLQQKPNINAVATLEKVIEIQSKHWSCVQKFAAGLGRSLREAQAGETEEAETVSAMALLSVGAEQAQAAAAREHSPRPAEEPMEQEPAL
# Some of the results follow.
# Assays:
# Test in all cases: log2 fold change, soluble protein after heating vs DMSO (PISA); higher = thermal stabilisation; K562 cells, 10 uM, 30 min; active = over 0.2 and 3.5 SD of the protein, either way, in both replicates (recomputed)
# [1] = compound: CS(=O)(=O)c1ccc(-c2cnc(N)c(C(=O)Nc3ccccc3)n2)cc1
# How it was run: (§1)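 Values are thermal stability changes relative to control samples and are taken from duplicates. They are stated as log2 fold changes. Before quantification by TMTpro 16plex LC-MS/MS with equalised channel sums, K562 cells at 2×10^6 cells/mL were treated with 10 μM compound for 30 min, heated in aliquots for 3 min across 48°C-58°C, pooled, extracted in PBS with 0.5% NP-40 at 4°C, and centrifuged at 21,000xg for 90 min to give the soluble supernatant.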
# [2] = compound: C[C@@H](Oc1cc(-c2cnn(C3CCNCC3)c2)cnc1N)c1c(Cl)ccc(F)c1Cl [crizotinib]
# How it was run: as §1
# [3] = compound: C[C@@H]1COCCN1C2=NC(=NC(=C2)C3(CC3)S(=O)(=O)C)C4=C5C=CNC5=CC=C4
# How it was run: as §1
# [4] = compound: C[C@H](C1=CC=C(C=C1)C(=O)NC2=C3C=CNC3=NC=C2)N
# How it was run: as §1
# [5] = compound: Cc1cc(Nc2cc(CN3CCOCC3)c3nc(C)c(Cc4ccc(Cl)cc4F)n3n2)n[nH]1 [gandotinib]
# How it was run: as §1
# [6] = compound: Cc1cc(SCc2sc(-c3ccc(C(F)(F)F)cc3)nc2C)ccc1OCC(=O)O
# How it was run: as §1
# [7] = compound: Cc1ccc(-n2nc(C(C)(C)C)cc2NC(=O)Nc2ccc(OCCN3CCOCC3)c3ccccc23)cc1 [doramapimod]
# How it was run: as §1
# [8] = compound: Cc1ccc(C(=O)N(CCCN)[C@@H](c2nc3cc(Cl)ccc3c(=O)n2Cc2ccccc2)C(C)C)cc1 [ispinesib]
# How it was run: as §1
# [9] = compound: Cc1ccc(NC(=O)c2ccc(CN3CC[C@H](N(C)C)C3)c(C(F)(F)F)c2)cc1Nc1nccc(-c2cncnc2)n1 [bafetinib]
# How it was run: as §1
# [10] = compound: Cc1cccc(CC(=O)N2CCc3c2ccc(-c2cn(C)c4ncnc(N)c24)c3F)n1
# How it was run: as §1
# [11] = compound: Cc1cn(-c2cc(NC(=O)c3ccc(C)c(Nc4nccc(-c5cccnc5)n4)c3)cc(C(F)(F)F)c2)cn1 [nilotinib]
# How it was run: as §1
# [12] = compound: Cc1nc(Nc2n[nH]c3c2CN(C(=O)N[C@H](CN(C)C)c2ccccc2)C3(C)C)c2sccc2n1
# How it was run: as §1
# [13] = compound: Cc1nc(Nc2ncc(C(=O)Nc3c(C)cccc3Cl)s2)cc(N2CCN(CCO)CC2)n1 [dasatinib]
# How it was run: as §1
# [14] = compound: Cc1ncc(-c2ccnc(Nc3ccc(S(C)(=O)=O)cc3)n2)n1C(C)C
# How it was run: as §1
# [15] = compound: Cn1cc(-c2ccc3c(c2)CCN3C(=O)Cc2cccc(C(F)(F)F)c2)c2c(N)ncnc21
# How it was run: as §1
# [16] = compound: Cn1cc(-c2ccc3nnc(C(F)(F)c4ccc5ncccc5c4)n3n2)cn1
# How it was run: as §1
# [17] = compound: Cn1cncc1[C@@](N)(c1ccc(Cl)cc1)c1ccc2c(c1)c(-c1cccc(Cl)c1)cc(=O)n2C [tipifarnib]
# How it was run: as §1
# [18] = compound: FC(F)(F)c1ccc(/C=C/c2nc(COc3ccc(CCCCn4ccnn4)cc3)co2)cc1 [mubritinib]
# How it was run: as §1
# [19] = compound: C[C@H](Nc1ncnc2nc[nH]c12)c1cc2cccc(Cl)c2c(=O)n1-c1ccccc1 [duvelisib]
# How it was run: as §1
# [20] = compound: Cc1cc(Nc2cc(N3CCN(C)CC3)nc(Sc3ccc(NC(=O)C4CC4)cc3)n2)n[nH]1 [tozasertib]
# How it was run: as §1
Target,log2 fold change [1],log2 fold change [2],log2 fold change [3],log2 fold change [4],log2 fold change [5],log2 fold change [6],log2 fold change [7],log2 fold change [8],log2 fold change [9],log2 fold change [10],log2 fold change [11],log2 fold change [12],log2 fold change [13],log2 fold change [14],log2 fold change [15],log2 fold change [16],log2 fold change [17],log2 fold change [18],log2 fold change [19],log2 fold change [20]
HDAC6 (UniProt Q9UBN7),inactive: -0.019,inactive: -0.057,inactive: -0.007,inactive: 0.066,inactive: 0.079,inactive: 0.062,inactive: 0.015,inactive: -0.027,inactive: -0.18,inactive: -0.086,inactive: 0.126,inactive: -0.026,inactive: -0.107,inactive: -0.084,inactive: 0.055,inactive: -0.005,inactive: -0.009,inactive: 0.086,–,–
HDAC1 (UniProt Q13547),inactive: 0.011,inactive: 0.084,inactive: 0.001,inactive: 0.115,inactive: -0.02,inactive: 0.06,inactive: -0.018,inactive: 0.038,inactive: 0.306,inactive: -0.046,inactive: -0.023,inactive: -0.021,inactive: -0.091,inactive: -0.055,inactive: -0.002,inactive: -0.009,inactive: -0.078,inactive: -0.025,–,–
GTF3C4 (UniProt Q9UKN8),inactive: -0.011,inactive: 0.078,inactive: 0.04,inactive: -0.015,inactive: -0.05,inactive: -0.063,inactive: -0.019,inactive: 0.06,inactive: -0.065,inactive: 0.019,inactive: -0.034,inactive: -0.069,inactive: -0.024,inactive: 0.036,inactive: -0.017,inactive: -0.007,inactive: 0.014,inactive: 0.01,–,–
GTF2E2 (UniProt P29084),inactive: 0.037,inactive: 0.012,inactive: -0.029,inactive: -0.002,inactive: -0.03,inactive: 0.071,inactive: -0.025,inactive: -0.01,inactive: 0.031,inactive: 0.03,inactive: -0.082,inactive: -0.108,inactive: -0.241,inactive: 0.005,inactive: -0.016,inactive: 0.044,inactive: 0.051,inactive: -0.02,–,–
H3-2 (UniProt Q5TEC6),inactive: 0.207,inactive: -0.144,–,–,inactive: 0.078,–,inactive: 0.23,inactive: -0.212,inactive: -0.618,inactive: -0.342,inactive: -0.123,inactive: -0.039,–,inactive: -0.04,–,inactive: -0.032,inactive: 0.223,inactive: 0.064,–,–
GTF2A2 (UniProt P52657),inactive: 0.022,inactive: 0.11,inactive: 0.102,inactive: 0.015,inactive: -0.005,inactive: -0.076,inactive: -0.034,inactive: 0.023,inactive: -0.032,inactive: -0.036,inactive: -0.025,inactive: 0.022,inactive: 0.047,inactive: -0.021,inactive: 0.056,inactive: 0.104,inactive: -0.028,inactive: 0.008,–,–
GUF1 (UniProt Q8N442),inactive: 0.155,inactive: 0.242,–,–,inactive: 0.069,inactive: 0.459,inactive: 0.058,inactive: 0.126,–,inactive: -0.023,inactive: -0.068,inactive: 0.034,inactive: -0.143,inactive: -0.002,–,inactive: 0.022,inactive: -0.283,inactive: -0.259,inactive: 0.148,inactive: -0.069
HCFC1 (UniProt P51610),inactive: 0.077,inactive: -0.259,–,–,inactive: -0.049,–,inactive: 0.027,inactive: -0.112,–,inactive: -0.143,inactive: -0.141,inactive: -0.071,–,inactive: 0.228,–,inactive: 0.032,–,inactive: -0.015,–,inactive: 0.132
GSTCD (UniProt Q8NEC7),inactive: 0.083,inactive: -0.056,inactive: 0.058,inactive: 0.035,–,–,inactive: 0.11,inactive: -0.109,inactive: 0.125,–,inactive: 0.026,inactive: -0.082,–,inactive: -0.016,inactive: 0.059,inactive: 0,inactive: -0.072,inactive: 0.217,–,inactive: -0.143
H2AFX (UniProt P16104),inactive: -0.09,inactive: -0.096,inactive: -0.39,inactive: 0.479,inactive: 0.087,inactive: -0.078,inactive: 0.348,inactive: -0.222,inactive: 0.103,inactive: -0.198,inactive: -0.041,inactive: -0.025,inactive: 0.283,inactive: -0.012,inactive: -0.439,inactive: -0.146,inactive: 0.074,inactive: -0.111,–,–
GTPBP6 (UniProt O43824),inactive: -0.002,inactive: 0.012,inactive: 0.197,inactive: -0.066,inactive: 0.003,inactive: -0.006,inactive: 0.06,inactive: 0.076,active: -0.706,inactive: -0.072,inactive: 0.13,inactive: 0.069,inactive: 0.028,inactive: -0.042,inactive: 0.057,inactive: 0.042,–,inactive: 0.058,–,–
HECTD1 (UniProt Q9ULT8),inactive: -0.034,inactive: 0.084,inactive: 0.129,inactive: 0.072,inactive: -0.062,inactive: 0.06,inactive: -0.062,inactive: -0.126,inactive: 0.025,inactive: 0.029,inactive: -0.111,inactive: -0.141,inactive: -0.104,inactive: -0.022,inactive: -0.058,inactive: -0.032,inactive: -0.088,inactive: -0.144,–,–
GUSB (UniProt P08236),inactive: 0.053,inactive: 0.004,inactive: -0.018,inactive: 0.063,inactive: 0.051,inactive: -0.039,inactive: 0.042,inactive: -0.03,inactive: 0.016,inactive: -0.013,inactive: 0.218,inactive: -0.115,inactive: 0.053,inactive: 0.117,inactive: -0.059,inactive: -0.007,inactive: 0.16,inactive: -0.136,–,–
GTF3A (UniProt Q92664),inactive: -0.002,inactive: -0.145,inactive: 0.015,inactive: 0.078,inactive: 0.023,inactive: 0.023,inactive: -0.001,–,inactive: -0.113,inactive: -0.026,inactive: 0.042,inactive: -0.219,inactive: -0.137,inactive: -0.031,inactive: 0.023,–,inactive: -0.12,inactive: 0.06,–,–
GYS1 (UniProt P13807),inactive: 0.017,inactive: -0.097,inactive: -0.187,inactive: 0.311,inactive: -0.015,inactive: 0.184,inactive: 0.271,inactive: -0.231,inactive: 0.107,inactive: 0.011,inactive: 0.237,inactive: -0.18,inactive: 0.172,inactive: -0.036,inactive: -0.266,inactive: -0.139,inactive: 0.147,inactive: 0.001,–,–
GTPBP4 (UniProt Q9BZE4),inactive: -0.067,–,inactive: -0.241,inactive: 0.74,inactive: 0.098,inactive: -0.051,–,inactive: -0.25,inactive: -0.023,inactive: -0.153,inactive: 0.238,inactive: 0.565,inactive: 0.024,inactive: -0.095,inactive: -0.221,inactive: -0.066,–,inactive: -0.353,inactive: -0.184,inactive: -0.048
GSTM3 (UniProt P21266),inactive: -0.138,–,inactive: 0.018,inactive: -0.071,inactive: 0.007,inactive: 0.08,–,–,inactive: -0.038,inactive: -0.036,inactive: -0.013,inactive: 0.011,inactive: -0.094,inactive: 0.044,inactive: 0.104,–,inactive: 0.099,inactive: -0.005,inactive: -0.001,inactive: -0.033
H6PD (UniProt O95479),inactive: -0.117,–,inactive: -0.043,inactive: 0.095,inactive: -0.041,inactive: 0.027,–,inactive: -0.065,–,inactive: -0.072,inactive: -0.218,inactive: -0.058,inactive: -0.071,inactive: -0.318,inactive: 0.082,inactive: 0.019,inactive: 0.213,inactive: -0.046,inactive: 0.108,inactive: 0.002
HBQ1 (UniProt P09105),inactive: -0.017,inactive: 0.037,inactive: 0.065,inactive: -0.148,inactive: -0.002,inactive: -0.023,inactive: -0.003,inactive: 0.092,inactive: 0.028,inactive: 0.046,inactive: 0.054,inactive: -0.004,inactive: 0.102,inactive: -0.043,inactive: 0.12,inactive: 0.117,inactive: -0.125,inactive: 0.039,–,–
H2AZ1 (UniProt P0C0S5),inactive: -0.027,inactive: -0.062,inactive: -0.47,inactive: 0.345,inactive: -0.006,inactive: -0.084,inactive: 0.178,inactive: -0.147,inactive: 0.173,inactive: -0.204,inactive: -0.138,inactive: -0.029,inactive: -0.092,inactive: -0.006,inactive: -0.369,inactive: -0.133,inactive: 0.013,inactive: -0.083,–,–
HEATR1 (UniProt Q9H583),inactive: 0.007,inactive: -0.055,inactive: 0.042,–,inactive: -0.128,inactive: -0.037,inactive: 0.092,inactive: -0.257,inactive: 0.107,inactive: 0.186,inactive: 0.264,inactive: -0.224,inactive: -0.033,inactive: 0.029,–,inactive: -0.163,inactive: 0.131,inactive: -0.044,inactive: -0.009,inactive: -0.139
HDAC5 isoform 3 (UniProt Q9UQL6),inactive: 0.006,–,inactive: -0.052,inactive: -0.126,inactive: 0.018,inactive: 0.089,–,–,inactive: -0.098,inactive: 0.201,inactive: 0.08,inactive: -0.093,inactive: 0.055,inactive: 0.034,inactive: 0.14,–,–,inactive: 0.164,inactive: 0.081,inactive: -0.194
